Measurements published in article PMC10166522.
These are yes or no findings as the source states them, for the method shown. Binding seen in cells or lysates may run through a third protein. Some binding calls cover weakened binding; strength is not graded here. Sequences can lack the tags named with a protein. Each block holds one molecule with its values, some of them ahead of it.

Sequences of proteins named here, by UniProt entry; tags and fusion partners are left off.
UniProt Q8WQ99: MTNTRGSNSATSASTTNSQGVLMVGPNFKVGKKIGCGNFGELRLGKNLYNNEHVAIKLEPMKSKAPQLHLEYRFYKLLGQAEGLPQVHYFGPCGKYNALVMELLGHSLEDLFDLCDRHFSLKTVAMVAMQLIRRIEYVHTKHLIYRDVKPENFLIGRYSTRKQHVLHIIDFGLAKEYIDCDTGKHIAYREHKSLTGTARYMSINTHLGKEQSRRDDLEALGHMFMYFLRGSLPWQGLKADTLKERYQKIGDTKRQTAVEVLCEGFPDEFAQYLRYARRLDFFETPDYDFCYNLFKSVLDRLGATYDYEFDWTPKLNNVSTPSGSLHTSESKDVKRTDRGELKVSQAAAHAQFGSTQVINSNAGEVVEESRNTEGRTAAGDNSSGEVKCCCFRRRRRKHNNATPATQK
UniProt P78368: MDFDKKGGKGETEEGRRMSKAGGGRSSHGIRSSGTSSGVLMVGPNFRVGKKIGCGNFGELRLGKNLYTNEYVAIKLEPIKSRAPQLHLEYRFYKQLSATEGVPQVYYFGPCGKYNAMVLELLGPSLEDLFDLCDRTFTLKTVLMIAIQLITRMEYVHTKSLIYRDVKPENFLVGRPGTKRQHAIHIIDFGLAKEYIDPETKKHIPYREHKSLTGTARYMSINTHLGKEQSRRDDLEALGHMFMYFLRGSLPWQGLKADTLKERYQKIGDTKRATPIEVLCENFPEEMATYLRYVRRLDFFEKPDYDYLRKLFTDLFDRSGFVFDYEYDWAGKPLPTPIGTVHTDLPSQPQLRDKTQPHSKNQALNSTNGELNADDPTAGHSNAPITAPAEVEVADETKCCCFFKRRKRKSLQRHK

Tests used:
[1] = biological target: T1, DUOXA2::HA fusion protein (human) (UniProt Q1HG44); experiment: co-IP; HEK293T cells co-expressing both proteins, lysed in IP buffer; anti-HA antibody and protein A/G beads at 4°C overnight, 5 washes in TBST; blot with anti-FLAG and anti-HA
T1 sequence: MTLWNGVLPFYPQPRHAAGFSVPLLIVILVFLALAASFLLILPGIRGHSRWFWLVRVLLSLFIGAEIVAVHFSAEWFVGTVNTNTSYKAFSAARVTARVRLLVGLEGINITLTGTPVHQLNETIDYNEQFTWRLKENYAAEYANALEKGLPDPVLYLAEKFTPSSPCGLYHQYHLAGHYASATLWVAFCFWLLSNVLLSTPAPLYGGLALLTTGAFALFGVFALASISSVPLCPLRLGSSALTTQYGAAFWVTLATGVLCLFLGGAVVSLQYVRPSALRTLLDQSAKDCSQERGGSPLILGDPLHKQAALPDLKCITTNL

[2] = biological target: T2, DOXA-1::HA fusion protein (C. elegans) (UniProt P34298); experiment: as above
T2 sequence: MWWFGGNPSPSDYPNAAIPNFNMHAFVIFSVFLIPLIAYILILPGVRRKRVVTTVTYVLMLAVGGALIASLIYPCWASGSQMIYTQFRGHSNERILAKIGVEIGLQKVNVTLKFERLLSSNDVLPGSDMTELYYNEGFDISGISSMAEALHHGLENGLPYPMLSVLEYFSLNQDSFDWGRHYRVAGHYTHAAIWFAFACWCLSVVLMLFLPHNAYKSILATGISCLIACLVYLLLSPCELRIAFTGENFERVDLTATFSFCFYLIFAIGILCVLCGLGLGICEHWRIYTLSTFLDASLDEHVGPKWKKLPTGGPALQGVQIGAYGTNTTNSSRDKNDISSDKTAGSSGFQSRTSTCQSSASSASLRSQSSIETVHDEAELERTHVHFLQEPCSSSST

[3] = biological target: FLAG::CSNK-1 fusion protein (C. elegans) (UniProt Q8WQ99); experiment: co-IP; HEK293T cells co-expressing both proteins, lysed in IP buffer; anti-FLAG antibody and protein A/G beads at 4°C overnight, 5 washes in TBST; blot with anti-HA and anti-FLAG
[4] = biological target: His::TF::CSNK-1 fusion protein (C. elegans) (UniProt Q8WQ99); experiment: pull-down; His::TF fusion protein from BL21 held on His-tag resin, incubated at 4°C overnight with the lysate supernatant of transfected HEK293T cells, 3 washes in TBST; Western blot; only the target purified

binding [1]: binds
Molecule: FLAG::CSNK1G2 fusion protein (from UniProt P78368 1-415) (enzyme)

binding [2]: binds
Molecule: FLAG::CSNK-1 fusion protein (from UniProt Q8WQ99 1-407) (enzyme)

binding [3]: binds | binding [4]: binds
B1: DOXA-1::HA fusion protein (protein, UniProt P34298 1-397)
chain: MWWFGGNPSPSDYPNAAIPNFNMHAFVIFSVFLIPLIAYILILPGVRRKRVVTTVTYVLMLAVGGALIASLIYPCWASGSQMIYTQFRGHSNERILAKIGVEIGLQKVNVTLKFERLLSSNDVLPGSDMTELYYNEGFDISGISSMAEALHHGLENGLPYPMLSVLEYFSLNQDSFDWGRHYRVAGHYTHAAIWFAFACWCLSVVLMLFLPHNAYKSILATGISCLIACLVYLLLSPCELRIAFTGENFERVDLTATFSFCFYLIFAIGILCVLCGLGLGICEHWRIYTLSTFLDASLDEHVGPKWKKLPTGGPALQGVQIGAYGTNTTNSSRDKNDISSDKTAGSSGFQSRTSTCQSSASSASLRSQSSIETVHDEAELERTHVHFLQEPCSSSST
